Laboratory results taken from PubChem BioAssay AID248 (DTP/NCI, 2004).
The list does not hold the whole screen: it gathers tests that were run many times, whatever their T/C, doses with no T/C, and many T/C values between a quarter and a half above the control. Further doses and runs are listed elsewhere. T/C gives the treated animals as a percentage of the vehicle group. Some doses have a count of surviving animals in place of a T/C: the source holds a T/C of zero for them, seemingly a mark for toxic or unscored doses. Some survivor counts are full or nearly so, which does not show that the dose was tolerated: survival well below the control is almost never listed, so the zero probably covers shortened survival too. Survivors were counted at the toxicity check, usually on the fifth day, unless a day is given; later deaths do not show. Schedules are NCI's codes, read here as Q, the interval in days (D) or hours (H), X, the number of doses. Some schedule codes hold Z or #, which are not explained here. For survival time, the PubChem record calls one and a half times the control and up active, and a quarter to a half above the control has no call in these data; cut-offs in other NCI protocols can differ. Some T/C values carry the count of animals alive at the toxicity check (mostly the fifth day); without a count, all were alive then.

Tested on: L1210 leukemia ip in BDF1 mice, survival T/C
Test: NCI In Vivo Anticancer Drug Screen. Data for tumor model L1210 Leukemia (intraperitoneal) in B6D2F1 (BDF1) mice
Details: T/C endpoint: mean survival time, higher T/C = longer survival
[1] = dose: 400.0 mg/kg/injection, schedule: Q04DX003 (ip), vehicle: saline with Tween-80
[2] = dose: 400.0 mg/kg/injection, schedule: Q04DX003 (ip), vehicle: Klucel (hydroxypropylcellulose) (HPC)
[3] = dose: 400.0 mg/kg/injection, schedule: Q01DX001 (ip), vehicle: saline
[4] = dose: 400.0 mg/kg/injection, schedule: Q04DX002 (ip), vehicle: saline with Tween-80

O=C1c2ccccc2Cc2cscc21
survivor count [1]: 0 of 3

O=C(O)c1ccccc1/C=C/c1ccc([N+](=O)[O-])cc1
survivor count (dose: 200.0 mg/kg/injection, schedule: Q01DX001 (ip), vehicle: saline with Tween-80): 3 of 6 | survivor count (dose: 400.0 mg/kg/injection, schedule: Q01DX001 (ip), vehicle: saline with Tween-80): 0 of 6

COc1cc(N=Nc2ccccc2)ccc1N
survivor count (dose: 200.0 mg/kg/injection, schedule: Q04DX003 (ip), vehicle: acetone): 6 of 6

CC1(C)COC(C)(C)C(=O)O1
survivor count [2]: 6 of 6

Cc1cc(C)[n+]([O-])c(C)c1[N+](=O)[O-]
survivor count [3]: 3 of 6

CC(=O)OC(C)(C)/C=C/C(=O)[C@](C)(O)[C@H]1[C@H](O)C[C@@]2(C)[C@@H]3CC=C4[C@@H](CC[C@H](O)C4(C)C)[C@]3(CO)C(=O)C[C@]12C
survivor count (dose: 2.0 mg/kg/injection, schedule: Q01DX Z (ip), vehicle: saline): 2 of 6

Cc1cc(C)c(O)c(CN(C)C)c1
survivor count [1]: 0 of 3

O=[N+]([O-])c1cc(Cl)ccc1N1CCCC1
survivor count (dose: 400.0 mg/kg/injection, schedule: Q01DX009 (ip), vehicle: saline with Tween-80): 3 of 6

CCCCCCCN=C(N)CSSCC(N)=NCCCCCCC
survivor count (dose: 12.5 mg/kg/injection, schedule: Q04DX002 (ip), vehicle: saline with Tween-80): 0 of 3 | survivor count (dose: 25.0 mg/kg/injection, schedule: Q04DX002 (ip), vehicle: saline with Tween-80): 0 of 3 | survivor count (dose: 100.0 mg/kg/injection, schedule: Q04DX002 (ip), vehicle: saline with Tween-80): 0 of 3 | survivor count (dose: 200.0 mg/kg/injection, schedule: Q04DX002 (ip), vehicle: saline with Tween-80): 0 of 3 | survivor count [4]: 0 of 3

CS(=O)(=O)OCC(=O)NCCCNC(=O)COS(C)(=O)=O
T/C (dose: 9.4 mg/kg/injection, schedule: Q01DX015 (ip), vehicle: saline): 125 % of control | T/C (dose: 37.5 mg/kg/injection, schedule: Q01DX015 (ip), vehicle: saline): 142 % of control | T/C (dose: 256.0 mg/kg/injection, schedule: Q01DX009 (ip), vehicle: saline): 142 % of control [5 of 6 alive] | survivor count (dose: 400.0 mg/kg/injection, schedule: Q01DX009 (ip), vehicle: saline): 3 of 6 | survivor count (dose: 600.0 mg/kg/injection, schedule: Q01DX009 (ip), vehicle: saline): 1 of 6

COC1=C(Cl)C(=O)C(OC)=C(Cl)C1=O
survivor count (dose: 80.0 mg/kg/injection, schedule: Q01DX001 (ip), vehicle: saline): 0 of 6 | survivor count (dose: 100.0 mg/kg/injection, schedule: Q01DX001 (ip), vehicle: saline): 0 of 4 | survivor count (dose: 200.0 mg/kg/injection, schedule: Q01DX001 (ip), vehicle: saline): 0 of 4 | survivor count [3]: 0 of 4

CN(CCCl)CC1C(c2ccccc2)C1c1ccccc1 (centres undefined)
survivor count (dose: 200.0 mg/kg/injection, schedule: Q04DX002 (ip), vehicle: Klucel (hydroxypropylcellulose) (HPC)): 0 of 3 | survivor count (dose: 400.0 mg/kg/injection, schedule: Q04DX002 (ip), vehicle: Klucel (hydroxypropylcellulose) (HPC)): 0 of 3

CCC(C)C(C(=O)OCCN(C)C)c1ccccc1 (centres undefined)
survivor count [1]: 4 of 6

O=S(=O)(NS(=O)(=O)c1ccc(Cl)cc1)c1ccc(Cl)cc1
survivor count [2]: 1 of 6

O=C1C(=O)c2ccccc2-c2ccccc21.O=C1C(=O)c2ccccc2-c2ccccc21.[Hg]
survivor count (dose: 12.5 mg/kg/injection, schedule: Q04DX003 (ip), vehicle: saline with Tween-80): 1 of 6 | survivor count (dose: 25.0 mg/kg/injection, schedule: Q04DX003 (ip), vehicle: saline with Tween-80): 1 of 6

O=C(NC1CCCC1)c1ccc(C(=O)NC2CCCC2)cc1
survivor count [3]: 1 of 4

CCC1C(=O)CC(C(=O)O)C1C(=O)O (centres undefined)
survivor count [4]: 3 of 3

C=C(Br)CN=C=S
survivor count (dose: 100.0 mg/kg/injection, schedule: Q04DX003 (ip), vehicle: saline with Tween-80): 6 of 6 | survivor count (dose: 200.0 mg/kg/injection, schedule: Q04DX003 (ip), vehicle: saline with Tween-80): 0 of 6 | survivor count [1]: 0 of 6
